Counter-ions that a name gives are not always drawn.
System: HepG2 cells
Assay: HepG2 cytotoxicity assay (CellTitre-Glo)
Assay type: cell-based
Details: Homo sapiens, 48 hours
Protocol: Actively growing HepG2 cells were removed from a T-175 tissue culture flask with 5 mL of Eagle’s MEM containing 10% FBS/1%NEAA/1% Penicillin and Streptomycin) and mixed with gentle pipetting. […] The cell suspension was added to 250 mL of the same medium at a final density of […]. […] Plates were allowed to incubate at 37°C at a relative humidity of 80% and 5% CO2 for 48 hours. After incubation, the plates were allowed to equilibrate at room temperature for 30 mins before 25 μL of CellTitre-Glo (Promega) reagent was added to each well using a multichannel pipette. Plates were left at room temperature for 30 mins before relative luminescence was read using a BMG Labtech POLARstar Omega plate reader.

CCN(CC)CCOc1ccc(C(=C(Cl)c2ccccc2)c2ccccc2)cc1 [Clomiphene citrate] showed an IC50 of 35 µM.
